Experimental data reported in patent publication US8673951B2, “Isoxazoline-substituted benzamide compound and pesticide” (priority 2005, dated 2014).
Some entries share one result that the patent states for a list of compounds. At least one compound was matched to its structure with a doubt left.

What follows are molecules tested on cabbage moth (Plutella xylostella) (assay: Insecticidal test against cabbage moth (Test Example 1)). Conditions: chemical solution 10 ppm (**); cabbage leaf dip; second instar larva; after 6 days; 25° C.
Assay type: in vivo
In the case of `COC(=O)NC(=O)c1ccc(C2=NOC(c3cc(C(F)(F)F)cc(C(F)(F)F)c3)(C(F)(F)F)C2)cc1C` (centres unmarked) [2-023], the “insecticidal rate (rate of dead insects)” value is reported as no less than 80%.
`COC(=O)NC(=O)c1ccc(C2=NOC(c3cc(Cl)cc(Cl)c3)(C(F)(F)F)C2)cc1C(F)(F)F` (centres unmarked) [2-024] was tested, and the “insecticidal rate (rate of dead insects)” value was no less than 80%.
`COCc1cc(C2=NOC(c3cc(Cl)cc(Cl)c3)(C(F)(F)F)C2)ccc1C(=O)NC(=O)OC` (centres unmarked) [2-025] was tested, and the “insecticidal rate (rate of dead insects)” value was no less than 80%.
For `Cc1cc(C2=NOC(c3cc(Cl)cc(Cl)c3)(C(F)(F)F)C2)ccc1C(=O)NC(=S)OC(C)C` (centres unmarked) [2-027], the “insecticidal rate (rate of dead insects)” value was no less than 80%.

Same assay, conditions: chemical solution 100 ppm (*); cabbage leaf dip; second instar larva; after 6 days; 25° C.
In the case of `C#CCOC(=S)NC(=O)c1ccc(C2=NOC(c3cc(Cl)cc(Cl)c3)(C(F)(F)F)C2)cc1C` (centres unmarked) [2-029], the “insecticidal rate (rate of dead insects)” value is reported as no less than 80%.
For `CCN(C(=O)OC)C(=O)c1ccc(C2=NOC(c3cc(Cl)cc(Cl)c3)(C(F)(F)F)C2)cc1C` (centres unmarked) [3-004], the “insecticidal rate (rate of dead insects)” value was no less than 80%.
`CCCN(C(=O)OC)C(=O)c1ccc(C2=NOC(c3cc(Cl)cc(Cl)c3)(C(F)(F)F)C2)cc1C` (centres unmarked) [3-005] was tested, and the “insecticidal rate (rate of dead insects)” value was no less than 80%.
`COC(=O)N(C(=O)c1ccc(C2=NOC(c3cc(Cl)cc(Cl)c3)(C(F)(F)F)C2)cc1C)C(C)C` (centres unmarked) [3-006] was tested, and the “insecticidal rate (rate of dead insects)” value was no less than 80%.
For `COCN(C(=O)OC)C(=O)c1ccc(C2=NOC(c3cc(Cl)cc(Cl)c3)(C(F)(F)F)C2)cc1C` (centres unmarked) [3-007], the “insecticidal rate (rate of dead insects)” value was no less than 80%.
In the case of `COC(=O)N(CC#N)C(=O)c1ccc(C2=NOC(c3cc(Cl)cc(Cl)c3)(C(F)(F)F)C2)cc1C` (centres unmarked) [3-008], the “insecticidal rate (rate of dead insects)” value is reported as no less than 80%.
`COC(=O)CN(C(=O)OC)C(=O)c1ccc(C2=NOC(c3cc(Cl)cc(Cl)c3)(C(F)(F)F)C2)cc1C` (centres unmarked) [3-009] was tested, and the “insecticidal rate (rate of dead insects)” value was no less than 80%.
For `C#CCN(C(=O)OC)C(=O)c1ccc(C2=NOC(c3cc(Cl)cc(Cl)c3)(C(F)(F)F)C2)cc1C` (centres unmarked) [3-010], the “insecticidal rate (rate of dead insects)” value was no less than 80%.
In the case of `COC(=O)N(C(C)=O)C(=O)c1ccc(C2=NOC(c3cc(Cl)cc(Cl)c3)(C(F)(F)F)C2)cc1C` (centres unmarked) [3-011], the “insecticidal rate (rate of dead insects)” value is reported as no less than 80%.
With `COC(=O)N(C(=O)c1ccc(C2=NOC(c3cc(Cl)cc(Cl)c3)(C(F)(F)F)C2)cc1C)C(=O)C(C)(C)C` (centres unmarked) [3-012] the “insecticidal rate (rate of dead insects)” value was no less than 80%.
`COCC(=O)N(C(=O)OC)C(=O)c1ccc(C2=NOC(c3cc(Cl)cc(Cl)c3)(C(F)(F)F)C2)cc1C` (centres unmarked) [3-013] was tested, and the “insecticidal rate (rate of dead insects)” value was no less than 80%.
`COC(=O)N(C(=O)OC)C(=O)c1ccc(C2=NOC(c3cc(Cl)cc(Cl)c3)(C(F)(F)F)C2)cc1C` (centres unmarked) [3-014] was tested, and the “insecticidal rate (rate of dead insects)” value was no less than 80%.
`CCOC(=O)N(C)C(=O)c1ccc(C2=NOC(c3cc(Cl)cc(Cl)c3)(C(F)(F)F)C2)cc1C` (centres unmarked) [3-015] was tested, and the “insecticidal rate (rate of dead insects)” value was no less than 80%.
`Cc1cc(C2=NOC(c3cc(Cl)cc(Cl)c3)(C(F)(F)F)C2)ccc1C(=O)N(C)C(=O)OC(C)C` (centres unmarked) [3-016] was tested, and the “insecticidal rate (rate of dead insects)” value was no less than 80%.
For `CCN(C(=O)OC(C)C)C(=O)c1ccc(C2=NOC(c3cc(Cl)cc(Cl)c3)(C(F)(F)F)C2)cc1C` (centres unmarked) [3-017], the “insecticidal rate (rate of dead insects)” value was no less than 80%.
With `COCN(C(=O)OC(C)C)C(=O)c1ccc(C2=NOC(c3cc(Cl)cc(Cl)c3)(C(F)(F)F)C2)cc1C` (centres unmarked) [3-018] the “insecticidal rate (rate of dead insects)” value was no less than 80%.
`COCCOC(=O)N(C)C(=O)c1ccc(C2=NOC(c3cc(Cl)cc(Cl)c3)(C(F)(F)F)C2)cc1C` (centres unmarked) [3-020] was tested, and the “insecticidal rate (rate of dead insects)” value was no less than 80%.

Same assay, conditions: chemical solution 500 ppm; cabbage leaf dip; second instar larva; after 6 days; 25° C.
With `CCCCOC(=S)NC(=O)c1ccc(C2=NOC(c3cc(Cl)cc(Cl)c3)(C(F)(F)F)C2)cc1C` (centres unmarked) [2-028] the “insecticidal rate (rate of dead insects)” value was no less than 80%.
With `CCOC(=O)NC(=O)c1ccc(C2=NOC(c3cc(Cl)c(Cl)c(Cl)c3)(C(F)(F)F)C2)cc1` (centres unmarked) [2-030] the “insecticidal rate (rate of dead insects)” value was no less than 80%.
With `CCOC(=O)N(C)C(=O)c1ccc(C2=NOC(c3cc(Cl)cc(Cl)c3)(C(F)(F)F)C2)cc1` (centres unmarked) [3-001] the “insecticidal rate (rate of dead insects)” value was no less than 80%.
With `CC(C)OC(=O)N(C)C(=O)c1ccc(C2=NOC(c3cc(Cl)cc(Cl)c3)(C(F)(F)F)C2)cc1` (centres unmarked) [3-002] the “insecticidal rate (rate of dead insects)” value was no less than 80%.
For `CCCCOC(=O)N(C)C(=O)c1ccc(C2=NOC(c3cc(Cl)cc(Cl)c3)(C(F)(F)F)C2)cc1C` (centres unmarked) [3-019], the “insecticidal rate (rate of dead insects)” value was no less than 80%.
